{"source": "PubChem BioAssay AID1117293", "about": "(Broad Institute, 2014)", "note": "The inconclusive results got no clear call from the source; some entries with a clear call stand among them for comparison. Active and inactive are the calls of the source.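 How the source made its calls: active means cytotoxic in every repeat run, with fitted half-maximal concentration at most twice the top tested dose; inconclusive means runs disagree, or flat partial drop, or poor curve fit; inactive means inactive in every run.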", "data": [{"test": "HEK293T cell cytotoxicity, dose response, cytotoxicity control, CellTiter-Glo luminescence, dry powder, set 20 (AID 1117293)", "settings": "HEK293T viability, CellTiter-Glo ATP luminescence, 72 h; at 26 µM (top of the series)", "values": [{"smiles": "COc1ccc(C2=NN(c3ccc(C(=O)O)cc3)C(c3ccc(OC)c(OC)c3)C2)cc1", "note": "(stereo not drawn)", "activity change, negative = cytotoxicity": "inconclusive: -20.8%"}, {"smiles": "CC(=O)N1CCN(C(=O)[C@@H]2CCN2C(=O)Nc2ccc(C)cc2)CC1", "activity change, negative = cytotoxicity": "inconclusive: 1.64%"}, {"smiles": "CC(=O)N1CCN(C(=O)C2(NC(=O)Nc3cccc(C(F)(F)F)c3)CCCCC2)CC1", "activity change, negative = cytotoxicity": "inactive: -5.58%"}]}]}
